Data source: PubChem BioAssay AID1259424 (University of Nebraska Medical Center, 2018)
Purpose: 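Seek colon cancer survival genes behaving like KSR1, using a six-gene signature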 (primary screen). System: human HCT116 colon cancer cells. Reagent: siRNA pool against human genes, 50 nM. Measured: 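Log2 levels of six mRNAs (branched-DNA multiplex), adjusted by two reference genes and the non-targeting median, then scored against the average KSR1 knockdown pattern as Pearson r and euclidean distance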. Scale: mean correlation with KSR1 profile: higher = expression change more like KSR1 knockdown.
This is an unselected part of about 14,000 reagents tested. 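Higher correlation or smaller distance means closer resemblance to KSR1 loss; control wells, including KSR1 knockdowns, recur on many plates.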 Not all columns of the deposit are shown. The record does not give: the time to read-out.

gene,mean correlation with KSR1 profile
EDC3 (enhancer of mRNA decapping 3),0.351
GORASP1 (golgi reassembly stacking protein 1),-0.0489
GLCE (glucuronic acid epimerase),-0.498
TRAFD1 (TRAF-type zinc finger domain containing 1),0.0614
RPL12 (ribosomal protein L12),-0.267
KAT2B (lysine acetyltransferase 2B),-0.342
MGMT (O-6-methylguanine-DNA methyltransferase),-0.185
LRRC8E (leucine rich repeat containing 8 VRAC subunit E),0.286
SPANXC (SPANX family member C),-0.198
IDH3G,0.0206
HLA-DPB2,-0.0488
GEMIN4 (gem nuclear organelle associated protein 4),-0.457
SLC6A2,0.307
TBCD (tubulin folding cofactor D),-0.413
MBD1 (methyl-CpG binding domain protein 1),0.000256
GABBR1 (gamma-aminobutyric acid type B receptor subunit 1),0.681
ZNF334 (zinc finger protein 334),-0.269
POP4 (POP4 ribonuclease P/MRP subunit),0.0264
MSH2 (mutS homolog 2),0.177
VPS4B (vacuolar protein sorting 4 homolog B),0.179
OBP2A (odorant binding protein 2A),-0.459
ODF2 (outer dense fiber of sperm tails 2),0.0744
DPYSL5 (dihydropyrimidinase like 5),-0.765
PARD6G (par-6 family cell polarity regulator gamma),0.749
ZFTRAF1 (zinc finger TRAF-type and ring finger containing 1),0.331
ORAI1 (ORAI calcium release-activated calcium modulator 1),0.787
SIGLEC8 (sialic acid binding Ig like lectin 8),-0.24
WNT10B (Wnt family member 10B),-0.346
VSIG4 (V-set and immunoglobulin domain containing 4),0.496
PLXNA2 (plexin A2),-0.00973
SLC6A5,-0.0806
"MFSD2A (MFSD2 lysolipid transporter A, lysophospholipid)",0.187
"PFKP (phosphofructokinase, platelet)",-0.368
CDC40 (cell division cycle 40),-0.116
RPS6KA2 (ribosomal protein S6 kinase A2),-0.503
WNT5A (Wnt family member 5A),-0.762
HPS5 (HPS5 biogenesis of lysosomal organelles complex 2 subunit 2),-0.123
TLCD3B (TLC domain containing 3B),0.694
MZF1 (myeloid zinc finger 1),-0.174
RSRC1 (arginine and serine rich coiled-coil 1),-0.0844
CPT1B (carnitine palmitoyltransferase 1B),0.696
ALDH18A1 (aldehyde dehydrogenase 18 family member A1),0.808
QNG1 (Q-nucleotide N-glycosylase 1),0.564
UBE3B (ubiquitin protein ligase E3B),-0.0421
LRRC36 (leucine rich repeat containing 36),-0.249
MYO18A (myosin XVIIIA),0.59
MIOX (myo-inositol oxygenase),-0.835
LINC00208 (long independently transcribed non-coding RNA 208),0.706
HELZ (helicase with zinc finger),-0.462
DDX3Y (DEAD-box helicase 3 Y-linked),0.138
MED8 (mediator complex subunit 8),-0.287
KLK14 (kallikrein related peptidase 14),0.477
MMUT (methylmalonyl-CoA mutase),0.495
SPRR2B (small proline rich protein 2B),-0.196
MOSPD1 (motile sperm domain containing 1),-0.666
TMEM39A (transmembrane protein 39A),-0.745
"NAA60 (N-alpha-acetyltransferase 60, NatF catalytic subunit)",-0.409
CKAP4 (cytoskeleton associated protein 4),-0.563
SERTAD4 (SERTA domain containing 4),-0.0609
CLDND1 (claudin domain containing 1),-0.42
DKK1 (dickkopf Wnt signaling pathway inhibitor 1),-0.109
ENOX2 (ecto-NOX disulfide-thiol exchanger 2),0.3
MYH8 (myosin heavy chain 8),-0.57

11 of these entries in another layout:
{"gene": "ORAI1 (ORAI calcium release-activated calcium modulator 1)", "mean correlation with KSR1 profile": 0.787}
{"gene": "SIGLEC8 (sialic acid binding Ig like lectin 8)", "mean correlation with KSR1 profile": -0.24}
{"gene": "WNT10B (Wnt family member 10B)", "mean correlation with KSR1 profile": -0.346}
{"gene": "VSIG4 (V-set and immunoglobulin domain containing 4)", "mean correlation with KSR1 profile": 0.496}
{"gene": "PLXNA2 (plexin A2)", "mean correlation with KSR1 profile": -0.00973}
{"gene": "SLC6A5", "mean correlation with KSR1 profile": -0.0806}
{"gene": "MFSD2A (MFSD2 lysolipid transporter A, lysophospholipid)", "mean correlation with KSR1 profile": 0.187}
{"gene": "PFKP (phosphofructokinase, platelet)", "mean correlation with KSR1 profile": -0.368}
{"gene": "CDC40 (cell division cycle 40)", "mean correlation with KSR1 profile": -0.116}
{"gene": "RPS6KA2 (ribosomal protein S6 kinase A2)", "mean correlation with KSR1 profile": -0.503}
{"gene": "WNT5A (Wnt family member 5A)", "mean correlation with KSR1 profile": -0.762}
